Experimental data taken from patent US6379894 (NOVIMAUNE S A, dated 1999).
These are yes or no findings as the source states them, for the method shown. Some results given as binding are weak or reduced against the parent protein; the word gives no strength.

The chains behind the UniProt entries cited, without tags or fusion partners.
UniProt P22415: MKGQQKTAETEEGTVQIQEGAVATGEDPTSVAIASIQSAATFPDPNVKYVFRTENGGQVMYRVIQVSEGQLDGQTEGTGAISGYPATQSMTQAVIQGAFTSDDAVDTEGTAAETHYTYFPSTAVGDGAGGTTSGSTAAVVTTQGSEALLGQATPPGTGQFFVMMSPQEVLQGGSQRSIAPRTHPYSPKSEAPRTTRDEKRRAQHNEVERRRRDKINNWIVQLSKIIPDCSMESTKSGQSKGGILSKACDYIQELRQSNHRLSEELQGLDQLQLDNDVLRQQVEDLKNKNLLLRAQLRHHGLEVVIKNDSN

B1: purified and activated recombinant STAT1 protein (other, UniProt P42224 1-750, looked up)
chain: MSQWYELQQLDSKFLEQVHQLYDDSFPMEIRQYLAQWLEKQDWEHAANDVSFATIRFHDLLSQLDDQYSRFSLENNFLLQHNIRKSKRNLQDNFQEDPIQMSMIIYSCLKEERKILENAQRFNQAQSGNIQSTVMLDKQKELDSKVRNVKDKVMCIEHEIKSLEDLQDEYDFKCKTLQNREHETNGVAKSDQKQEQLLLKKMYLMLDNKRKEVVHKIIELLNVTELTQNALINDELVEWKRRQQSACIGGPPNACLDQLQNWFTIVAESLQQVRQQLKKLEELEQKYTYEHDPITKNKQVLWDRTFSLFQQLIQSSFVVERQPCMPTHPQRPLVLKTGVQFTVKLRLLVKLQELNYNLKVKVLFDKDVNERNTVKGFRKFNILGTHTKVMNMEESTNGSLAAEFRHLQLKEQKNAGTRTNEGPLIVTEELHSLSFETQLCQPGLVIDLETTSLPVVVISNVSQLPSGWASILWYNMLVAEPRNLSFFLTPPCARWAQLSEVLSWQFSSVTKRGLNVDQLNMLGEKLLGPNASPDGLIPWTRFCKENINDKNFPFWLWIESILELIKKHLLPLWNDGCIMGFISKERERALLKDQQPGTFLLRFSESSREGAITFTWVERSQNGGEPDFHAVEPYTKKELSAVTFPDIIRNYKVMAAENIPENPLKYLYPNIDKDHAFGKYYSRPKEAPEPMELDGPKGTGYIKTELISVSEVHPSRLQTTDNLLPMSPEEFDEVSRIVGSVEFDSMMNTV
modifications: activated form (phosphorylated); the residue numbers are not given
notes: also called STAT1 factor

Assays:
[1] = molecular target: USF1 factor in nuclear extracts of Me67.8 cells (UniProt P22415); assay: EMSA and supershift. The U complex from interferon gamma stimulated Me67.8 nuclear extract holds both STAT1 and USF1.
[2] = molecular target: T1, purified and recombinant USF1 protein (UniProt P22415 1-310, limits assumed); assay: EMSA with recombinant proteins on radiolabelled NGE DNA probe (GAS element and E-box)
T1 construct: also called USF1 recombinant factor; USF1 recombinant proteins

[3] = molecular target: USF1 factor in nuclear extracts of Me67.8 cells (UniProt P22415); assay: EMSA on NGE DNA probe, nuclear extract plus recombinant STAT1

Molecule	binding [1]	binding [2]	binding [3]
STAT1 protein in nuclear extract of Me67.8 cells stimulated by interferon gamma (from UniProt P42224 2-750)	binds		
B1		binds	binds
